AC50 data for 40 compounds are collected here from PubChem BioAssay AID493014 (National Center for Advancing Translational Sciences (NCATS), 2011).

The assay in a line: qHTS Assay to Find Inhibitors of Chronic Active B-Cell Receptor Signaling. As to conditions: ABC-DLBCL IkBa-CBG/CBR reporter, luminescence ratio (green luciferase fused to IkBa over red control in TMD8 lymphoma cells), 4 h. In short, it runs like this:
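Cell line TMD8 (human ABC DLBCL), stably expressing tet-inducible CBG68-IkBa fusion and CBR; IMDM/0.5% FBS; cpd up to 46 uM; dox induction, 4 h, 37C/5% CO2; dual luminescence; green/red ratio; MG132 control.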

Where [1] appears, read: measured here: CBR red luminescence, cell number.
Where [2] appears, read: measured here: IkBa-CBG green luminescence.

Molecules are shown by their SMILES. This is one part of the list. The main result of the screen is listed elsewhere. These columns were measured beside it and carry no call. Most of these compounds were active or inconclusive in the main read-out, so they are no random draw. Words in brackets tell the shape of the fitted curve; partial curves, single points and poor fits give uncertain potencies.

For `Oc1ccc(C2=NNC(c3ccc(O)cc3)=NN2)cc1`, under setting [1], the AC50 (commonly the concentration giving half of the maximal activity seen) is 12.6 µM [falling, partial curve]. `O=c1[nH]n2c(=O)c3c([nH]c2c1N=Nc1cccc(Cl)c1)CCCC3`: the AC50 under setting [1] is 0.651 µM [rising, full curve, poor fit]. As to `Cc1ccc(-n2ncc(C(=O)Nc3cc(Cl)ccc3Cl)c2C2CCNCC2)cc1`, under setting [1], the AC50 is 22.4 µM [falling, single point]. Same read-out and setting: in the case of `COc1ccc(C(=O)Nc2c(Cl)cc(Cl)cc2C(=O)NCCN2CCOCC2)cc1` it was 3.66 µM [rising, partial curve, poor fit].

Consider `COCCCN=C1NN=C(c2cc(C)n(Cc3ccco3)c2C)CS1`, for which the AC50 under setting [1] is 29.1 µM [rising, single point] and the AC50 under setting [2] is 18.4 µM [falling, single point]. Turning to `CCC(=O)Nc1ccc(C(=O)n2ccc(C)n2)cc1`, the AC50 under setting [1] is 7.94 µM [rising, partial curve]. With `N/C(=N\OC(=O)COc1ccc(Br)cc1Cl)c1cccnc1`, the AC50 under setting [1] is 1.3 µM [rising, full curve, poor fit]. For `Cc1ccccc1NC(=O)c1ccc2ccccc2c1`, under setting [1], the AC50 is 12.6 µM [falling, partial curve]. Turning to `CC(C)(C)NC(=O)C(c1ccncc1)N(Cc1cccs1)C(=O)Cn1nnc(-c2ccc(F)cc2)n1` (configuration not stated), the AC50 under setting [2] is 18.4 µM [rising, single point]. With `CCc1ccc(NC(=O)c2ccc3nc(N)sc3c2)cc1`, under setting [1], the AC50 was 10.3 µM [falling, partial curve]. For `N#Cc1cccc(NC(=O)CCC2CCCC2)c1`, the AC50 under setting [1] is 0.731 µM [rising, partial curve, poor fit]. On to `C#CCOCCOCCOCCNc1nc(N2CCN(C(=O)CCCCCCCCCCNC(=O)[C@H](CCCCN)n3cc(C)nn3)CC2)nc(N2CCN(C(=O)CCCCCCCCCCNC(=O)[C@@H]([C@H](C)O)n3cc(C)nn3)CC2)n1`, for which the AC50 under setting [1] is 29.1 µM [rising, single point]. In the case of `O=C(CSc1nc2ccccc2c(=O)[nH]1)N1CCCCC1`, under setting [1], the AC50 was 2.59 µM [falling, full curve, poor fit]. For the compound `Cc1ccc(NC(=S)NC(=O)/C=C/c2ccco2)c(O)c1`, the AC50 under setting [1] is 35.5 µM [falling, single point].

Regarding `CCOC(=O)c1sc(=S)n(Cc2ccccc2)c1C`, under setting [1], the AC50 is 8.91 µM [rising, partial curve, poor fit]. Turning to `CCCCn1c(=N)n(CCOc2ccc(C)cc2)c2ccccc21`, the AC50 under setting [1] was 18.4 µM [falling, single point]. On to `Cc1c(C(=O)N/N=C/c2ccc(N(C)C)cc2)[nH]c2ccc(Cl)cc12`, for which the AC50 is 5.8 µM [rising, full curve] under setting [1] and 6.51 µM [falling, partial curve, poor fit] under setting [2]. With `O=c1cc(N2CCCCC2)c(-c2ccccc2)nn1Cc1c(Cl)cccc1Cl`, the AC50 under setting [1] was 3.55 µM [rising, single point].

`Cc1cnc(C(=O)Nc2nnc(C(C)C)s2)cn1`: the AC50 under setting [1] is 0.291 µM [rising, full curve, poor fit]. As for `CCOc1ccccc1NC(=O)CN(C)S(=O)(=O)c1cnc[nH]1`, the AC50 under setting [1] was 35.5 µM [rising, single point]. On the same count and under the same terms, the result for `COc1ccc(/C=C/C(=O)Nc2cc(C)nn2-c2nc3ccccc3[nH]2)cc1` reads 2.91 µM [falling, full curve]. For the compound `O=C1CCc2cc(S(=O)(=O)NCc3ccc(F)cc3)cc3c2N1CCC3`, the AC50 under setting [1] was 16.4 µM [falling, single point]. For the compound `Cc1c(C(=O)N/N=C/c2cccs2)nc2ccccn12`, the AC50 under setting [1] was 18.4 µM [falling, single point]. Regarding `CC(C)c1ccc(C(=O)Nc2nnc(S(=O)(=O)N3CCOCC3)s2)cc1`, the half-maximal activity concentration (AC50) under setting [1] was 10 µM [rising, partial curve, poor fit]. Take `c1ccc2c(c1)nc(NCC1CCCO1)c1nnnn12` (configuration not stated): the AC50 under setting [1] is 1.3 µM [falling, full curve, poor fit].

For `O=c1[nH]c2ccccc2c2cn(-c3ccccc3)nc12`, the AC50 under setting [1] is 1.26 µM [falling, full curve, poor fit]. The same measure, in the same setting: the result for `COC(=O)c1ccc(C)c(NC(=O)CCc2ccc(OC)c(OC)c2)c1` reads 11.6 µM [rising, partial curve, poor fit]; that for `Cc1cc(N)n2nc(C(F)(F)F)nc2n1`, 14.1 µM [falling, partial curve, poor fit]; that for `Cc1cccc(C(=O)N2CCN(C(=O)c3cccc(C)c3)C(C)C2)c1` (configuration not stated), 3.26 µM [falling, single point]. `CC1CCCCN1c1ncnc2ccccc12` (configuration not stated): under setting [1], the AC50 is 29.1 µM [rising, partial curve, poor fit]. Consider `C=CCNc1oc(-c2cccs2)nc1S(=O)(=O)c1ccccc1`, for which the AC50 under setting [1] was 3.55 µM [falling, partial curve, poor fit]. Still for that read-out and setting: the result for `Cc1ccc(N(C(=O)c2ccc3c(c2)OCO3)C2C=CS(=O)(=O)C2)cc1C` (configuration not stated) reads 20 µM [falling, single point]; that for `O=C(CCCOc1ccc(Cl)cc1)Nc1ccc(N2CCOCC2)cc1`, 35.5 µM [falling, single point]; that for `CN(CCCNC(=O)Cn1cc2c(n1)CCCC2)C1CCCCC1`, 7.31 µM [rising, partial curve]. As for `CCC(C)N(C(=O)COC(=O)c1cc([N+](=O)[O-])ccc1N1CCOCC1)C1CCS(=O)(=O)C1` (configuration not stated), the AC50 under setting [2] is 18.4 µM [falling, partial curve, poor fit].

On to `COc1ccc(NC(=O)c2cc([N+](=O)[O-])ccc2N2CCCCC2)cc1`, for which, under setting [1], the AC50 was 1.12 µM [falling, full curve, poor fit].

For `O=Cc1ccc(OCC(=O)N2CCc3ccccc32)c(Br)c1`, the AC50 under setting [1] was 5.17 µM [falling, partial curve].

As to `Cc1nnsc1C(=O)Nc1ccc(Cl)cc1Cl`, the AC50 under setting [1] is 11.2 µM [rising, partial curve]. Turning to `COc1ccccc1CNC(=O)CSc1nc(=O)[nH]c2c1CCC2`, the AC50 under setting [1] was 11.2 µM [falling, partial curve, poor fit].

With `N#C/C(=C\c1ccc(O)c([N+](=O)[O-])c1)c1nc2ccccc2s1`, under setting [1], the AC50 is 1 µM [rising, full curve, poor fit].
